In the supplement of paper PMC10338343:
± gives the standard deviation. Only a part is listed here, and it is no random draw. Many of these values have a large error. The list shows a part of the results.

Key:
[1] = tested on: MILI (PIWIL2) piRISC loaded with L1MC piRNA (26 nt); assay: pre-steady-state target cleavage rate (min^-1); higher = faster piRNA-guided slicing of the target; conditions: guide: L1MC piRNA 5'p-UAACUAAAUACUAUGCAAGCUGUAGG
Procedure, shortened: (§1)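 Cleave-'n-Seq: a transcribed, DNA-blocked target RNA library (0.1 nM) was mixed with 1 nM active affinity-purified piRISC carrying one synthetic guide, with or without 500 nM GTSF1 partner protein, in HEPES–potassium acetate buffer at 33 °C for 0–8 or 0–960 min. Uncleaved targets were sequenced and normalised to depth and to weakly complementary targets. Three trials were pooled, and k3 was capped at 0.0001 min^-1. The pre-steady-state cleavage rate came from a burst-and-steady-state fit.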

[2] = tested on: MIWI (PIWIL1) piRISC loaded with L1MC piRNA (30 nt); assay: as above; conditions: guide: L1MC piRNA 5'p-UAACUAAAUACUAUGCAAGCUGUAGGUCCU
Procedure, shortened: as §1

[3] = tested on: EfPiwi piRISC loaded with L1MC piRNA (26 nt); assay: pre-steady-state target cleavage rate (min^-1); guide: L1MC piRNA 5'p-UAACUAAAUACUAUGCAAGCUGUAGG; MIWI and MILI are mouse PIWI proteins and EfPiwi is from a freshwater sponge; tags in brackets are library labels; higher = faster piRNA-guided slicing of the target
Procedure, shortened: as §1

[4] = auxiliary factor: 500 nM mouse GTSF1
[5] = auxiliary factor: none (no GTSF1)
[6] = auxiliary factor: 500 nM Ephydatia muelleri Gtsf1
[7] = auxiliary factor: none (no Gtsf1)

Row | Sequence | pre-steady-state target cleavage rate [1, 4] | pre-steady-state target cleavage rate [1, 5] | pre-steady-state target cleavage rate [2, 5] | pre-steady-state target cleavage rate [3, 6] | pre-steady-state target cleavage rate [3, 7] | pre-steady-state target cleavage rate [2, 4]
1 | UCCUGCUACAGCUUGCAGUAGUAUUUAGUUA | 0.00973 ± 0.0053 | 0.000752 ± 0.0085 | 0.000208 ± 0.024 | 0.0051 ± 0.0024 | 0.00108 ± 0.0072 | –
2 | UCCUGGAUCAGCUUGCAUAGUUUUUACAAA | 0.012 ± 0.0052 | 0.00102 ± 0.0046 | 0.00214 ± 0.0031 | 0.00288 ± 0.0037 | 0.000242 ± 0.035 | –
3 | UCCUGCUACAGCUUGCAAUGUAUUUACAAA | 0.0477 ± 0.014 | 0.00108 ± 0.0057 | 0.000989 ± 0.0076 | 0.000187 ± 0.021 | 0.000164 ± 0.015 | –
4 | UCCUGGAUGAGCUUGCAUAGUUAAAUCAAA [g10:g21:cont:t1A] | 0.000858 ± 0.0092 | 0.00043 ± 0.016 | 0.000702 ± 0.0073 | 0.000586 ± 0.0085 | 0.000496 ± 0.017 | 0.000685 ± 0.013
5 | UCCUGGAUGUCGUUGCAUAGUAUUUACGUUA | 0.231 ± 0.064 | 0.00342 ± 0.0036 | 0.00271 ± 0.0047 | 0.00161 ± 0.0061 | 0.000658 ± 0.015 | –
6 | UCCUGGUACAGCUUGGUAAGUAUUUUCAAA | 0.00138 ± 0.0099 | 0.00114 ± 0.0069 | 0.000276 ± 0.0092 | 0.00026 ± 0.035 | 0.000693 ± 0.013 | 0.000955 ± 0.017
7 | UCCUCCUACAGCUUGCAUAGUAAAUACAAA | 0.0608 ± 0.018 | 0.000939 ± 0.006 | 0.000542 ± 0.014 | 0.00363 ± 0.003 | 0.00053 ± 0.018 | –
8 | UCCUGGAUGUCGUUGCAUAGAUUUAGUUA | 0.00113 ± 0.0065 | 0.00104 ± 0.0055 | 0.00142 ± 0.005 | 0.0004 ± 0.0067 | < 0.0001 | 0.000459 ± 0.018
9 | UCCUGGAUGUGCUUGCAUAAGUAUUUAGUUA | 0.00245 ± 0.0046 | 0.000994 ± 0.0061 | 0.000977 ± 0.0075 | 0.00155 ± 0.0026 | 0.000286 ± 0.031 | 0.00185 ± 0.0058
10 | UCCUGGAUGUGGUUGCAUAGUAUUUAGAUA | 0.0485 ± 0.021 | 0.000898 ± 0.011 | 0.00115 ± 0.0078 | 0.00221 ± 0.0048 | 0.000395 ± 0.038 | –
11 | UCCUGGAUGAGCUUGCAAUGUAUUUAGAAA | 0.00311 ± 0.004 | 0.00127 ± 0.0058 | 0.000522 ± 0.0051 | 0.00115 ± 0.0059 | 0.000563 ± 0.015 | 0.00157 ± 0.0059
12 | UCCUGGAUGUGCUACGAUAGUAUUUAGUUA | 0.0029 ± 0.0048 | 0.00117 ± 0.0052 | 0.00104 ± 0.0066 | 0.000582 ± 0.0084 | 0.000231 ± 0.033 | 0.000885 ± 0.013
13 | UCCUGGAUGAGCAUGCAUAGUAUUUACAAA | 0.0679 ± 0.018 | 0.0019 ± 0.0041 | 0.00132 ± 0.005 | 0.00229 ± 0.0027 | 0.000244 ± 0.027 | –
14 | UCCUGGAACAGCUUCGAUAGUAUUUAGUUA | 0.262 ± 0.015 | 0.00483 ± 0.0022 | 0.00187 ± 0.0026 | 0.00251 ± 0.0023 | 0.00056 ± 0.011 | –
15 | UCCUGGAUGUCGUUGCAUAGUUUUUUGUUA | 0.00172 ± 0.0071 | 0.00137 ± 0.0054 | 0.000801 ± 0.012 | 0.000356 ± 0.011 | 0.000432 ± 0.022 | 0.000808 ± 0.011
16 | UCCUGGAUGUCGUUGCAUAGUAUUUAGAUUA | 0.0205 ± 0.0091 | 0.00101 ± 0.0074 | 0.00101 ± 0.0084 | 0.00133 ± 0.0052 | 0.000417 ± 0.016 | 0.00118 ± 0.007
17 | UCCUGGAUGUCGAAGCAUAGUGUUUAGUUA | 0.0115 ± 0.0044 | 0.00454 ± 0.0019 | 0.0018 ± 0.004 | 0.000204 ± 0.03 | 0.000589 ± 0.015 | –
18 | UCCUGGAUGUGCUUGCAUAGUAUUUAGAUA | 0.0576 ± 0.014 | 0.0014 ± 0.0044 | 0.0188 ± 0.0067 | 0.00271 ± 0.0028 | 0.000542 ± 0.014 | 0.118 ± 0.023
19 | UCCUGGAUGUGCUUGCUAUGUAUUUAGUUA | 0.00774 ± 0.0037 | 0.00498 ± 0.0024 | 0.00155 ± 0.0043 | 0.000408 ± 0.0095 | 0.00069 ± 0.013 | –
20 | UCCUGGUACAGCUUGCAUUGUAUUUAGAAA | 0.0202 ± 0.0075 | 0.00143 ± 0.005 | 0.00195 ± 0.0028 | 0.00329 ± 0.0019 | 0.00037 ± 0.026 | –
21 | UCCUGGAUGUGGAAGCAUAGUAUUUAGAAA | 0.00259 ± 0.0037 | 0.000746 ± 0.0078 | 0.00107 ± 0.0056 | 0.00125 ± 0.0076 | 0.00199 ± 0.0076 | 0.000167 ± 0.026

As entered above:
Entry for UCCUGCUACAGCUUGCAGUAGUAUUUAGUUA under pre-steady-state target cleavage rate [3, 6]: 0.0051 ± 0.0024
Entry for UCCUGCUACAGCUUGCAAUGUAUUUACAAA under pre-steady-state target cleavage rate [1, 4]: 0.0477 ± 0.014
Entry for UCCUGGAACAGCUUCGAUAGUAUUUAGUUA under pre-steady-state target cleavage rate [1, 4]: 0.262 ± 0.015

Remaining list, next part.

Row | Sequence | pre-steady-state target cleavage rate [1, 4] | pre-steady-state target cleavage rate [1, 5] | pre-steady-state target cleavage rate [2, 5] | pre-steady-state target cleavage rate [3, 6] | pre-steady-state target cleavage rate [3, 7] | pre-steady-state target cleavage rate [2, 4]
22 | UCCUGGUACAGCUUGCAUAGUAAAUUCAAA | 0.0147 ± 0.0074 | 0.00228 ± 0.0038 | 0.00109 ± 0.0053 | 0.0008 ± 0.011 | 0.000636 ± 0.021 | –
23 | UCCUGGAUCAGCUUCCAUAGUAUUUUGUUA | 0.00236 ± 0.0054 | 0.000378 ± 0.016 | 0.000229 ± 0.014 | 0.000802 ± 0.0069 | 0.000158 ± 0.037 | –
24 | UCCUGGAUGUGCUUCGUUAGUAUUUAGUUA | 0.00476 ± 0.0034 | 0.00211 ± 0.0039 | 0.00046 ± 0.011 | 0.000306 ± 0.0093 | 0.000447 ± 0.018 | 0.000882 ± 0.013
25 | UCCUGGAUGUCCUUGCUAUGUAUUUAGUAA | 0.00762 ± 0.0042 | 0.000706 ± 0.0081 | 0.000551 ± 0.011 | 0.000997 ± 0.0061 | 0.000331 ± 0.023 | –
26 | UCCUGCUACAGCUUCGUUAGUAUUUAGUUA | 0.239 ± 0.022 | 0.00333 ± 0.0027 | 0.00192 ± 0.0023 | 0.00187 ± 0.0048 | 0.00118 ± 0.006 | –
27 | UCCUGGAUGUCGAUGCAUAUGUAUUUAGUUA | 0.00101 ± 0.0093 | 0.000662 ± 0.01 | 0.000671 ± 0.011 | 0.000533 ± 0.0066 | 0.000111 ± 0.037 | 0.000186 ± 0.043
28 | UCCUCCUACACGUUGCAUAGUAUUUAGAAA | 0.161 ± 0.029 | 0.00164 ± 0.0044 | 0.0018 ± 0.0044 | 0.00396 ± 0.003 | 0.000409 ± 0.014 | –
29 | UCCUGGAUGUGCUUCCAUAGUAUUUUGUUA | 0.00222 ± 0.0065 | 0.000401 ± 0.019 | 0.000441 ± 0.017 | 0.00071 ± 0.0055 | 0.000339 ± 0.025 | 0.00359 ± 0.0053
30 | UCCUGGAUGAGCUUGGUUAGUAUUUACAAA | 0.00156 ± 0.0073 | 0.00105 ± 0.0071 | 0.00072 ± 0.01 | 0.000268 ± 0.029 | 0.000733 ± 0.012 | 0.000389 ± 0.026
31 | UCCUGGAUGUGCUUGCAUGAGUAUUUAGUUA | 0.00229 ± 0.0066 | 0.00145 ± 0.0047 | – | 0.000275 ± 0.028 | 0.000449 ± 0.021 | 0.00179 ± 0.007
32 | UCCUGGAUGUGCUUGCAUAGAUUUUAGUUA | 0.00729 ± 0.0044 | 0.00375 ± 0.0024 | 0.00135 ± 0.0054 | 0.000454 ± 0.011 | 0.000128 ± 0.04 | 0.00264 ± 0.0055
33 | UCCUGGAUCAGCUUGCAUAGUAUAUUCAAA | 0.0428 ± 0.01 | 0.000926 ± 0.0056 | 0.00124 ± 0.0042 | 0.00286 ± 0.0039 | 0.000172 ± 0.056 | –
34 | UCCUGGAACUCCUUGCAUAGUAUUUUCAAA | 0.0315 ± 0.0074 | 0.000881 ± 0.006 | 0.00101 ± 0.0052 | 0.000574 ± 0.0067 | 0.000381 ± 0.014 | –
35 | UCCUGGAUGUCGUUGCAAGUAUUUAGUUA | 0.00141 ± 0.005 | 0.00175 ± 0.0034 | 0.00237 ± 0.0034 | 0.000347 ± 0.0075 | 0.000202 ± 0.044 | 0.00109 ± 0.0072
36 | UCCUGGAUGAGCUUGCAUUCUAUUUAGUAA | 0.00157 ± 0.0074 | 0.000381 ± 0.017 | 0.000853 ± 0.0078 | 0.000534 ± 0.007 | 0.000103 ± 0.041 | 0.00286 ± 0.0054
37 | UCCUGGAACAGCUUGCAUAGUUUUUUCAAA | 0.00594 ± 0.0037 | 0.000593 ± 0.0079 | 0.000417 ± 0.0066 | 0.000976 ± 0.003 | 0.000347 ± 0.017 | –
38 | UCCUGGAUGAGCUUGCAUAGUAUUAUGAAA | 0.00473 ± 0.0045 | 0.001 ± 0.0068 | 0.00248 ± 0.0035 | 0.000852 ± 0.0034 | 0.000503 ± 0.015 | 0.0112 ± 0.0054
39 | UCCUGCUACAGCUUGCGAUAGUAUUUAGUUA | 0.0073 ± 0.0045 | 0.00149 ± 0.0037 | 0.00174 ± 0.0041 | 0.00987 ± 0.0026 | 0.00213 ± 0.0051 | –
40 | UCCUCCUACAGCUUGCUAAGUAUUUAGUAA | 0.0708 ± 0.013 | 0.00132 ± 0.0047 | 0.0017 ± 0.0032 | 0.00132 ± 0.0057 | 0.000337 ± 0.016 | –
41 | UCCUGGAAGUCCUUGCAUAGUAUUUUCAAA | 0.0197 ± 0.0079 | 0.000586 ± 0.0086 | 0.000652 ± 0.009 | 0.000448 ± 0.0075 | 0.000157 ± 0.037 | –
42 | UCCUGGAACAGCUUGCAUAGUACUUUAGUUA | 0.168 ± 0.015 | 0.00486 ± 0.0022 | 0.00827 ± 0.0032 | 0.00922 ± 0.0033 | 0.00109 ± 0.012 | 0.472 ± 0.036
